Assay results as given in the supplement of paper PMC4635364.
Where a name gives a salt, the structure may show the parent alone. The list shows a part of the results. Single values are uncertain here, since repeats match poorly.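 Human fetal ventral-midbrain neural progenitor line ReNCell VM, differentiated without mitogens. Images stained for doublecortin (early neurons) or tyrosine hydroxylase (dopaminergic neurons) were scored by blinded raters against untreated wells (0 = no change). Repeats and both raters were averaged, and compounds averaging 2 or higher were picked as hits for retesting.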

test system: ReNCell VM; assay: neuronal differentiation score (DCX+ cell fraction vs untreated, manual image score) (score (-3 to 3)); higher = more neuronal differentiation; conditions: library: LOPAC; 2 uM; 2 weeks

Neuronal differentiation score, inactive:
CC[C@]1(O)C[C@@H]2CN(CCc3c([nH]c4ccccc34)[C@@](C(=O)OC)(c3cc4c(cc3OC)N(C)[C@H]3[C@@](O)(C(=O)OC)[C@H](OC(C)=O)[C@]5(CC)C=CCN6CC[C@]43[C@@H]65)C2)C1 [Vinblastine sulfate salt] 0, Cn1ccnc1 [1-Methylimidazole] 0, O=C1NCN(c2ccccc2)C12CCN(CCCC(c1ccc(F)cc1)c1ccc(F)cc1)CC2 [Fluspirilene] 0, Nc1nc(OCc2ccccc2)c2nc[nH]c2n1 [O6-benzylguanine] 0, NCCNS(=O)(=O)c1cccc2c(Cl)cccc12 [A3 hydrochloride] 0, CC(C)C[C@H](NC(=O)[C@H]1O[C@@H]1C(=O)O)C(=O)NCCCCN=C(N)N 0, Cc1cc2c(cc1Cl)N(C(=O)Nc1cccc3ncccc13)CC2 0, CC1CNCCN1S(=O)(=O)c1cccc2cnccc12 (configuration not stated) 0

same assay, conditions: library: Prestwick; 2 uM; 2 weeks

Neuronal differentiation score, inactive:
CNC(=C[N+](=O)[O-])NCCSCc1csc(CN(C)C)n1 [Nizatidine] 0, Cc1cc(-n2c(=O)[nH]c(=O)n(C)c2=O)ccc1Oc1ccc(SC(F)(F)F)cc1 [Toltrazuril] 0, CCCOc1ccc2[nH]c(NC(=O)OC)nc2c1 [Oxibendazol] 0, CCc1nc(N)nc(N)c1-c1ccc(Cl)cc1 [Pyrimethamine] 0, NS(=O)(=O)c1cc2c(cc1Cl)N=C(CSCc1ccccc1)NS2(=O)=O [Benzthiazide] 0, O=C(O)c1cn(-c2ccc(F)cc2)c2cc(N3CCNCC3)c(F)cc2c1=O [Sarafloxacin] 0, COc1cc(OC)c(C(=O)CCCN2CCCC2)c(OC)c1 [Buflomedil hydrochloride] 0, CCC(C)n1ncn(-c2ccc(N3CCN(c4ccc(OCC5COC(Cn6cncn6)(c6ccc(Cl)cc6Cl)O5)cc4)CC3)cc2)c1=O (configuration not stated) [Itraconazole] 0

same assay, conditions: library: Spectrum; 2 uM; 2 weeks

Neuronal differentiation score, inactive:
COc1ccccc1OCCNCC(O)COc1cccc2[nH]c3ccccc3c12 (configuration not stated) 0, CCCCN(CCCC)CCCOC(=O)c1ccc(N)cc1 0, COc1ccc(C2C(=O)c3ccccc3C2=O)cc1 -1, OC[C@H]1O[C@H](O[C@H]2[C@H](O)[C@@H](O)C(O)O[C@@H]2CO)[C@H](O)[C@@H](O)[C@@H]1O (some centres not stated) 0, O=C(O)c1cc2cc(F)ccc2[nH]1 0, COc1ccc(-c2cc(=O)c3c(OC)c(OC)c(OC)c(OC)c3o2)cc1 0, C=NC(C(=O)NC1C(=O)N2C1SC(C)(C)C2C(=O)O)c1ccccc1 (configuration not stated) 0, CCOc1ccc2nc(S(N)(=O)=O)sc2c1 0, CO[C@H]1C[C@H](O[C@H]2[C@H](C)[C@@H](O[C@@H]3O[C@H](C)C[C@H](N(C)C)[C@H]3OC(C)=O)[C@@H](C)C[C@@]3(CO3)C(=O)[C@H](C)[C@@H](OC(C)=O)[C@@H](C)[C@@H](C)OC(=O)[C@@H]2C)O[C@@H](C)[C@@H]1OC(C)=O 0, CN(C)C(=N)NC(=N)N 0, CC(O)(P(=O)(O)O)P(=O)(O)O 0, CS(=O)(=O)c1ccc([C@@H](O)[C@@H](CO)NC(=O)C(Cl)Cl)cc1 0, CC(=O)Nc1ccc(OC(=O)c2ccccc2O)cc1 0, CO/N=C(\C(=O)N[C@@H]1C(=O)N2C(C(=O)O)=C(CSc3nc(=O)c(O)nn3C)CS[C@H]12)c1csc(N)n1 0, COc1ccc(-c2coc3cc(O)ccc3c2=O)c(OC)c1 0, OC(CCN1CCCCC1)(c1ccccc1)C1CC2C=CC1C2 (configuration not stated) 0, COc1ccc2c(c1OC)C(=O)O[C@@H]2[C@H]1c2c(cc3c(c2OC)OCO3)CCN1C 0

same assay, conditions: library: Tocriscreen; 2 uM; 2 weeks

Neuronal differentiation score, inactive:
C[C@@H](CN1CCC(n2c(=O)[nH]c3cc(Cl)ccc32)CC1)NC(=O)c1ccc2ccccc2c1 0, Brc1c(NC2=NCCN2)ccc2nccnc12 [UK 14,304 tartrate] 0, CCN(CC)CCCC(C)Nc1nc(C)cc(Nc2ccc3nc(C)cc(N)c3c2)n1 (configuration not stated) -3, Nc1nc2c(ccc3ccccc32)s1 0, O=C1C(=O)N(Cc2ccc(Cl)c(Cl)c2)c2ccccc21 [Apoptosis Activator 2] 0, COC(=O)Nc1ccc2[nH]cc(CCNC(C)=O)c2c1 0

test system: ReNCell VM; assay: dopaminergic neuron differentiation score (TH+ cell fraction vs untreated, manual image score) (score (0 to 3)); higher = more TH+ dopaminergic neuron differentiation; conditions: library: LOPAC; 2 uM; 4 weeks; BDNF 10 ng/ml + GDNF 10 ng/ml

Dopaminergic neuron differentiation score, inactive:
CC[C@]1(O)C[C@@H]2CN(CCc3c([nH]c4ccccc34)[C@@](C(=O)OC)(c3cc4c(cc3OC)N(C)[C@H]3[C@@](O)(C(=O)OC)[C@H](OC(C)=O)[C@]5(CC)C=CCN6CC[C@]43[C@@H]65)C2)C1 [Vinblastine sulfate salt] 0, Cn1ccnc1 [1-Methylimidazole] 0, O=C1NCN(c2ccccc2)C12CCN(CCCC(c1ccc(F)cc1)c1ccc(F)cc1)CC2 [Fluspirilene] 0, Nc1nc(OCc2ccccc2)c2nc[nH]c2n1 [O6-benzylguanine] 0, NCCNS(=O)(=O)c1cccc2c(Cl)cccc12 [A3 hydrochloride] 0, CC(C)C[C@H](NC(=O)[C@H]1O[C@@H]1C(=O)O)C(=O)NCCCCN=C(N)N 0, Cc1cc2c(cc1Cl)N(C(=O)Nc1cccc3ncccc13)CC2 0, CC1CNCCN1S(=O)(=O)c1cccc2cnccc12 (configuration not stated) 0
